According to PubChem BioAssay AID2685 (National Center for Advancing Translational Sciences (NCATS), 2010):
The other results are listed elsewhere or left out. The main result of the screen is listed elsewhere. These columns were measured beside it and carry no call. The list favours compounds with an active or inconclusive main result. Potencies come from curve fits of mixed quality, noted in brackets.

Assay: qHTS Assay for Lipid Storage Modulators in Drosophila S3 Cells;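 as to cell number change: cells counted by Cell Tracker Red CMTPX staining in the red channel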
Settings: BODIPY lipid droplet fluorescence, 18-24 h; for cell number change: measured here: cell count max response, cells fed with added oleic acid
How it was run: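 Drosophila S3 cells loaded with oleic acid (400 uM, as added) and compounds at several concentrations; lipid droplets imaged by 488-nm laser-scanning cytometry, 500–530 nm intensity and object ratio to cell channel. Percent activity normalized to 20 uM Triacsin C.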

[1] = measured here: cell number channel AC50, cells fed with added oleic acid
[2] = measured here: lipid fluorescence (Fed channel) AC50, cells fed with added oleic acid

Row | Compound | cell number change [%] | AC50 [1] | AC50 [2]
1 | CSc1ccc(/C=C(\C#N)C(=O)NC2CCCCC2C)cc1 (centres undefined) | 6.04 |  | 
2 | O=C1CCCCN1CC(=O)N1CCCC(Nc2ccc(F)c(F)c2)C1 (centres undefined) | -77.5 | 13 µM [falling, partial curve] | 23.1 µM [falling, single point]
3 | O=C(CSc1nccn1-c1ccccc1)NO | -30.2 |  | 
4 | CC(=O)NCc1ccc(-c2csc(-c3cccs3)n2)cc1 | 18.1 |  | 0.103 µM [rising, partial curve, poor fit]
5 | CC(C)n1c(-c2ccc(N(C)C)cc2)nc2ccccc21 | 52.4 | 2.06 µM [rising, full curve] | 2.59 µM [rising, full curve]
6 | CCCCN(C(=O)COC(=O)COc1c(C)cc(C)cc1C)c1c(N)n(CCC)c(=O)[nH]c1=O |  | 4.11 µM [falling, single point] | 4.61 µM [rising, full curve]
7 | CCOc1ccc(/C=C2\NC(=S)NC2=O)cc1 | -32.4 | 18.4 µM [falling, single point] | 18.4 µM [falling, single point]
8 | Cc1cc(Nc2cccc(Cl)c2)c2ccccc2n1 | 6.22 |  | 18.4 µM [falling, single point]
9 | CCCNC(=O)COc1ncnc2sccc12 | 8.67 | 6.51 µM [rising, single point] | 
10 | CN1CCN(C(=O)/C(=C/c2ccc([N+](=O)[O-])cc2)NC(=O)c2ccccc2)CC1 | 1.28 |  | 
11 | CN(CC(=O)Nc1cccc(F)c1)C(=O)c1ccncc1 | -7.69 |  | 
12 | CN(C)c1ccc(C(CNC(=O)c2ccc(-c3ccccc3)cc2)N2CCOCC2)cc1 (centres undefined) | 63.6 | 14.6 µM [rising, partial curve] | 
13 | CCOC(=O)c1ccccc1NS(=O)(=O)c1cnn(CC)c1C | -18 |  | 4.11 µM [rising, full curve]
14 | CC1(c2ccc3c(c2)OCCO3)NC(=O)N(CC(=O)Nc2ccccc2SCC#N)C1=O (centres undefined) | 6.34 |  | 25.9 µM [rising, single point]
15 | Cc1nn(CC(=O)c2ccc(Br)s2)c(C)c1[N+](=O)[O-] | -0.425 |  | 18.4 µM [rising, partial curve, poor fit]
16 | Cc1cc(Br)ccc1OCCCCN1CCC(C)CC1 | -2.35 |  | 
17 | CCC(c1nnnn1CCOC)N1CCN(c2cccc(C(F)(F)F)c2)CC1 (centres undefined) | -3.37 |  | 29.1 µM [rising, single point]
18 | O=C(Cc1ccc(S(=O)(=O)N2CCCCC2)cc1)NCc1ccc(Cl)cc1 | -15.8 |  | 29.1 µM [rising, single point]
19 | COc1ccc(CCC(=O)Nc2cc(Cl)ccc2N2CCN(C)CC2)cc1 | -29.6 |  | 16.4 µM [falling, single point]
20 | Cc1ccc(-n2c(C)cc(C(=O)CSc3nncs3)c2C)cc1 | -31 | 3.26 µM [falling, full curve, poor fit] | 1.3 µM [falling, full curve]
21 | O=C(COc1ccc(C(=O)Nc2ccc(Cl)cc2)cc1)NCc1ccccc1 | 6.66 |  | 1.46 µM [rising, partial curve, poor fit]
22 | Cc1c(Cl)c([N+](=O)[O-])nn1CCCC(=O)N1CCN(c2ccccc2)CC1 | -15.4 |  | 13 µM [falling, partial curve]
23 | CCc1ccc(C(=O)Nc2nc(C)cs2)s1 | -16.9 |  | 
24 | C=CCc1cccc(CNc2nc3ccccc3n2CCC)c1O | -38.8 | 25.9 µM [falling, partial curve] | 29.1 µM [falling, single point]
25 | COC(=O)c1cc(C(=O)NNC(=O)c2ccc3c(c2)OCO3)cc([N+](=O)[O-])c1 | 6.96 |  | 2.91 µM [rising, single point]
26 | COc1ccc(CN(CCCN2CCOCC2)S(=O)(=O)N(C)C)cc1OC | -0.176 |  | 0.58 µM [falling, full curve]
27 | CCCCN(CCCC)CC(O)Cn1c2ccccc2c(=O)c2ccccc21 (centres undefined) | 19.9 | 4.61 µM [rising, full curve, poor fit] | 
28 | O=c1[nH][nH]c(-c2ccccc2)c1C=Nc1ccc(OC(F)(F)F)cc1 |  | 1.84 µM [falling, partial curve] | 1.3 µM [falling, partial curve]

Row | Compound | cell number change [%] | AC50 [1] | AC50 [2]
29 | Nc1ncnc(Sc2ncccn2)c1[N+](=O)[O-] | -74.7 | 31.6 µM [falling, partial curve] | 31.6 µM [falling, partial curve, poor fit]
30 | CCOC(=O)C1=C(C)N=c2s/c(=C/c3ccc(OCC(=O)O)cc3)c(=O)n2C1c1cc(OC)c(OC)c(OC)c1 (centres undefined) | -5.28 |  | 18.4 µM [falling, single point]
31 | COc1cc(C(=S)N2CCCCC2)ccc1OCC(=O)Nc1ccc(F)cc1 | -57.9 | 8.2 µM [falling, partial curve, poor fit] | 6.51 µM [rising, single point]
32 | CCOC(=O)CC1=NN(c2ccccc2)C(=O)C1 | 10.2 | 3.26 µM [rising, single point] | 6.51 µM [rising, single point]
33 | N#Cc1ccc(NC(=S)Nc2ccccc2)cc1 | 20.7 |  | 11.6 µM [rising, partial curve, poor fit]
34 | Cc1ccc(-n2ncc3c(=O)n(CC(=O)N4CCCCCC4)cnc32)cc1 | 22.3 |  | 14.6 µM [rising, single point]
35 | CC(=O)c1ccc(N2C(=NC(=O)COc3ccccc3)SC3CS(=O)(=O)CC32)cc1 (centres undefined) | -13 |  | 23.1 µM [rising, single point]
36 | O=C1CCc2cc(S(=O)(=O)Nc3ccc(C(F)(F)F)cc3)cc3c2N1CC3 | 36.7 | 23.1 µM [rising, single point] | 7.31 µM [falling, single point]
37 | NC(CC(=O)NC(c1ccccc1)(c1ccccc1)c1ccccc1)C(=O)O (centres undefined) | -80.3 | 29.1 µM [falling, single point] | 25.9 µM [falling, single point]
38 | Cc1ccccc1NC(=O)c1cccc2nccnc12 | -25.4 |  | 13 µM [falling, partial curve, poor fit]
39 | O=C(CCCn1c(SCC(=O)NC2CCCCC2)nc2ccccc2c1=O)NCC1CCCO1 (centres undefined) | 14.8 |  | 1.03 µM [rising, partial curve]
40 | COCCn1c(N)c(C(=O)OCc2ccccc2)c2nc3ccccc3nc21 | 21.1 | 0.0092 µM [rising, full curve, poor fit] | 0.146 µM [rising, full curve]
41 | C[N+]1(CC(=O)OCCCc2ccccc2)CCCC1 | -18.5 |  | 1.3 µM [falling, full curve]
42 | CCOC(=O)C1=C(C)OC(N)=C(C#N)C1c1c(C)nn(-c2ccccc2)c1Cl (centres undefined) | 95.5 | 2.06 µM [rising, full curve] | 1.16 µM [rising, full curve]
43 | Cn1c(CCNC(=O)c2ccco2)nc2cc(NS(=O)(=O)c3ccc(Cl)cc3)ccc21 | -0.141 | 3.66 µM [rising, single point] | 2.91 µM [rising, partial curve]
44 | O=C(OCc1ccc(Cl)c(Cl)c1)c1ccccn1 | -2.21 |  | 9.2 µM [rising, single point]
45 | CCOc1cc(CNc2cccc3ccccc23)cc(Br)c1OCC(=O)NC(C)(C)C |  | 0.0651 µM [rising, full curve, poor fit] | 
46 | Cc1cc(Cl)c(S(=O)(=O)N2CCCCCC2)cc1OCC(=O)NC1CCCCC1 |  |  | 6.51 µM [rising, single point]
47 | CN(C(=O)COc1ccc(Br)cc1Cl)C1CCCCC1 | -7.69 |  | 1.64 µM [rising, partial curve, poor fit]
48 | Cc1ccc(CNC(=O)c2cccc3c2C(=O)c2ccc(N4CCCCC4)cc2S3(=O)=O)cc1 | -50.1 | 0.0184 µM [falling, full curve, poor fit] | 16.4 µM [falling, partial curve]
49 | CC(C)(C)c1ccc(C(=O)N/C(=C\c2cccc([N+](=O)[O-])c2)C(=O)Nc2cccc(C(=O)O)c2)cc1 | -9.39 |  | 0.58 µM [rising, single point]
50 | CCc1nn(CC(=O)NCc2cccnc2)c(=O)c2cc3occc3n12 | 10.6 |  | 6.51 µM [falling, single point]
51 | CCc1c(C(=O)Nc2cc(C(=O)OC)ccc2C)csc1C | -2.97 |  | 8.2 µM [rising, partial curve, poor fit]
52 | CCOC(=O)CN1C(=O)N[C@H](c2ccc(Br)cc2)C(C(C)=O)=C1C | -0.802 |  | 7.31 µM [rising, partial curve]
53 | CCOC(=O)c1c(NC(=O)CSc2ncnc3ccccc23)sc(C(C)=O)c1C | 39.8 | 7.31 µM [rising, partial curve] | 29.1 µM [rising, single point]
54 | CC(C)N1C(=O)/C(=C\c2nc3ccccc3c(=O)n2-c2ccccc2)c2ccccc21 | -47.7 | 18.4 µM [falling, single point] | 29.1 µM [falling, single point]
55 | CCSc1nnc2c(n1)OC1(CCCC1)Nc1ccccc1-2 | 36.9 | 29.1 µM [rising, single point] | 0.517 µM [rising, full curve]

Molecules listed so far that contain an NH in an aromatic ring, in the order listed:
Row | Compound | cell number change [%] | AC50 [1] | AC50 [2]
6 | CCCCN(C(=O)COC(=O)COc1c(C)cc(C)cc1C)c1c(N)n(CCC)c(=O)[nH]c1=O |  | 4.11 µM [falling, single point] | 4.61 µM [rising, full curve]
28 | O=c1[nH][nH]c(-c2ccccc2)c1C=Nc1ccc(OC(F)(F)F)cc1 |  | 1.84 µM [falling, partial curve] | 1.3 µM [falling, partial curve]
